Experimental data from PubChem BioAssay AID1508600 (Functional Genomics Laboratory (NCATS/FGL), 2020).
Hit rate of the full screen: of about 53,000 sequences, about 3,700 (7%) were called active.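 How the source made its calls: active means gene knockdowns whose robust z-score for IL-1 alpha signal is at least 2 or at most -2, so actives lie on both sides; inactive means the rest.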 The list shows a part of the results.

Assay: Components of the Cytosolic LPS Sensing Pathway: Gene Identification via Genome-wide siRNA Screen;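 further: robust z of the log signal after scaling to non-targeting control siRNA wells of the plate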
Conditions: RAW264.7 macrophages, IL-1a HTRF, actives lie on both sides, screened at 100 nM (by protocol), cells primed 5 h with Pam3CSK4 first
Summary of the method: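 RAW264.7; siRNA 100 nM final, RNAiMAX, 48h 37 degrees C; Pam3CSK4 5 h; LipidA + TransIT-TKO 24 h; IL-1a HTRF; CellTiter-Glo viability; robust z vs negative-control median.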

Row | Sequence | z-score
1 | GGCCAAAGUCCAUUCAUUCTT against Olfr1120 | inactive: 1.31
2 | GGCAUCAACUAAACAAUCCTT against Psip1 | inactive: 0.664
3 | GGCCAACAAUAUAAAAGACTT against Pus3 | inactive: -0.641
4 | GGUGAUCCUUCUUUUUUACTT against Sgo1 | active: -2.01
5 | CCCACCUUACAUAUAUUGATT against Srr | inactive: 0.25
6 | GGCUGAGGUCACCAUCAUCTT against Carmil1 | inactive: 0.0554
7 | GGUCUACAGACUGGAUUCUTT against Vmn1r236 | inactive: -0.308
8 | GGCUCAAGUAUCUAAUCUUTT against Tpm4 | inactive: -0.371
9 | GGAUUUGUCAAUGCAAUAATT against Olfr1012 | active: -2.68
10 | CGGUGUCAUCAGUUGCUUATT against Ckap5 | inactive: -0.316
11 | GGCACACAGCCCUCAAAUUTT against Mrpl30 | inactive: -0.446
12 | GCAUUACUGUAGGUAAGAGTT against Olfr630 | inactive: -1.3
13 | GGAGAUAUUGUAACUCGCCTT against Pcdhgb7 | inactive: 0.558
14 | GGUUCAACAUAUCCAUAGCTT against Vmn1r185 | inactive: -1.09
15 | CCAAAUAACCUGCUACGAGTT against Ffar2 | inactive: 0.905
16 | GGUCUCUAAAUCCUGCUUUTT against Vmn1r21 | inactive: -0.554
17 | CGAUUGUUAAAGAGAUCAUTT against Pgk2 | inactive: 0.472
18 | CCCAACACAAUAUUUGCCATT against Nfyc | inactive: 0.019
19 | GGCAUCUGAUUUAAGUCCUTT against Ankhd1 | inactive: -1.44
20 | GGAAACACCUUCUUCAGCATT against Qrfprl | inactive: -1.59
21 | CCUGCUUAGGACCAUCGACTT against Lrrn2 | inactive: -0.0914
22 | GGUUAAACCCUCUUCUCAUTT against Uhrf2 | inactive: -0.645

Row | Sequence | z-score
23 | CCUACAGUUUAUAAGCUUCTT against Olfr877 | inactive: 0.639
24 | CGAGGGAUAAGAGUCUACGTT against Ubxn11 | inactive: 1.45
25 | CCAGCCUAAUCAAAGACCUTT against Fam53b | inactive: -1.38
26 | GGACACUGCAAAAGAGGAGTT against Defa4 | inactive: 1.37
27 | GGCGAAAAGCCGUUCCAUUTT against E430018J23Rik | inactive: 0.664
28 | CCGAAAUCAUCUGAGAGCGTT against Rhd | inactive: 0.252
29 | CGCUCUGCCACUUUACCUUTT against 2210010C04Rik | inactive: -0.0128
30 | GGACUAUGGCUGCUGCUCATT against Dmrtc1a | inactive: -0.0336
31 | GGAUUCCUGUACAUAUAUUTT against Ube4b | inactive: -0.501
32 | GCUUUCAGAUGAUGACAAGTT against Cdc34 | inactive: 0.0219
33 | CGCUUCAUUGAGGAUACAGTT against Acy1 | inactive: 0.0642
34 | GGGCAAACGGAGGAAUGAATT against Slc35g3 | active: 2.47
35 | GGAAAAUCACCUAUAAGAATT against Rabl2 | inactive: 0.249
36 | GGUUUCAAAUAAAAAGGCATT against Lrrc23 | inactive: -0.893
37 | GGCGAUAAGACAAAAAUGATT against Myom1 | inactive: -1.41
38 | GCAAAAUUAUCAGUGAGGATT against Nt5c3b | active: -2.54
39 | GCUCACAAACUGAUUCCUUTT against 2700081O15Rik | inactive: 0.714
40 | GGUCACGAUUACUUCCCUGTT against Pcdha12 | inactive: 0.744
41 | CCUAGAAAGAGGACUCAGATT against Abhd12 | inactive: -0.293
42 | GGCAGUGACACAGAAAUGATT against Tnks | inactive: -0.115
43 | GCUUUCUGAUUCAAAGAUGTT against Dsc3 | inactive: -0.175
44 | GCUAACCAGUCAGUUGAUCTT against Mocs1 | inactive: -0.086

Row | Sequence | z-score
45 | GGCCUGUGAGCUAUGUAUCTT against Krtap26-1 | inactive: -0.792
46 | GGGUUUAGACUGAGAAAUATT against Eif3i | inactive: 0.856
47 | GGCUUCAUCCACAUGCACUTT against Gja5 | inactive: 0.348
48 | GGAUUUUUAUUCCAGAAGGTT against Fundc1 | inactive: -0.781
49 | GGGAAAUGGAGGAUAAUUATT against Zmat1 | inactive: -0.172
50 | GGCUAUGGAACAAAGUACUTT against Sostdc1 | inactive: 0.838
51 | GGUUGAUGCUGCUAUUGGGTT against Thap1 | inactive: -1.22
52 | GGAAGAGAAAGAAGAGUAATT against Tub | inactive: -1.76
53 | GUCUUCUAACCAGGUAAAGTT against Tgoln2 | inactive: 0.0459
54 | GGAGAAAAACAAAAACCAATT against Flii | inactive: 0.283
55 | GGCUGUUUGAGAUAUUAAUTT against Def6 | inactive: 0.219
56 | GGUGACUGAGAAAAAUGUUTT against Gfra3 | inactive: -0.326
57 | GGUUCCUAAGGAUGAACUUTT against Akr1c14 | inactive: -0.186
58 | GGUCAUGGUCUGAGAUUCUTT against Txnl4a | active: -2.34
59 | GGUUUAAUGAGCAUCCCUUTT against Foxj3 | inactive: -0.299
60 | GGAAGGUAAUAUUACAAGCTT against Ccdc68 | inactive: 0.44
61 | GGAAGGUGAUGAAUCAGCCTT against Wwtr1 | active: -2.74
62 | GCUGUUACCUUGACGAAUATT against Tsc2 | inactive: 1.32
63 | GGGUUUGACUUUUUGAGGGTT against Fbxo30 | inactive: 0.383
64 | GGAAAUGUUUAUCACGGUUTT against Scube2 | active: 2.05
65 | CGAGAAUGUAGAAAGUGGGTT against Mindy4 | inactive: -0.781
66 | GGAAAUAAACCACCUCUUCTT against Olfr437 | active: 2.36

A different layout for some results above:

| Row | Sequence | z-score |
| --- | --- | --- |
| 33 | CGCUUCAUUGAGGAUACAGTT against Acy1 | inactive: 0.0642 |
| 34 | GGGCAAACGGAGGAAUGAATT against Slc35g3 | active: 2.47 |
| 35 | GGAAAAUCACCUAUAAGAATT against Rabl2 | inactive: 0.249 |
| 36 | GGUUUCAAAUAAAAAGGCATT against Lrrc23 | inactive: -0.893 |
| 37 | GGCGAUAAGACAAAAAUGATT against Myom1 | inactive: -1.41 |
| 38 | GCAAAAUUAUCAGUGAGGATT against Nt5c3b | active: -2.54 |
| 39 | GCUCACAAACUGAUUCCUUTT against 2700081O15Rik | inactive: 0.714 |
| 40 | GGUCACGAUUACUUCCCUGTT against Pcdha12 | inactive: 0.744 |
| 41 | CCUAGAAAGAGGACUCAGATT against Abhd12 | inactive: -0.293 |
| 42 | GGCAGUGACACAGAAAUGATT against Tnks | inactive: -0.115 |
| 43 | GCUUUCUGAUUCAAAGAUGTT against Dsc3 | inactive: -0.175 |
| 44 | GCUAACCAGUCAGUUGAUCTT against Mocs1 | inactive: -0.086 |
| 45 | GGCCUGUGAGCUAUGUAUCTT against Krtap26-1 | inactive: -0.792 |
| 46 | GGGUUUAGACUGAGAAAUATT against Eif3i | inactive: 0.856 |
| 47 | GGCUUCAUCCACAUGCACUTT against Gja5 | inactive: 0.348 |
| 48 | GGAUUUUUAUUCCAGAAGGTT against Fundc1 | inactive: -0.781 |
| 49 | GGGAAAUGGAGGAUAAUUATT against Zmat1 | inactive: -0.172 |
| 50 | GGCUAUGGAACAAAGUACUTT against Sostdc1 | inactive: 0.838 |
| 51 | GGUUGAUGCUGCUAUUGGGTT against Thap1 | inactive: -1.22 |
| 52 | GGAAGAGAAAGAAGAGUAATT against Tub | inactive: -1.76 |
| 53 | GUCUUCUAACCAGGUAAAGTT against Tgoln2 | inactive: 0.0459 |
| 54 | GGAGAAAAACAAAAACCAATT against Flii | inactive: 0.283 |
| 55 | GGCUGUUUGAGAUAUUAAUTT against Def6 | inactive: 0.219 |
| 56 | GGUGACUGAGAAAAAUGUUTT against Gfra3 | inactive: -0.326 |
| 57 | GGUUCCUAAGGAUGAACUUTT against Akr1c14 | inactive: -0.186 |
| 58 | GGUCAUGGUCUGAGAUUCUTT against Txnl4a | active: -2.34 |
| 59 | GGUUUAAUGAGCAUCCCUUTT against Foxj3 | inactive: -0.299 |
| 60 | GGAAGGUAAUAUUACAAGCTT against Ccdc68 | inactive: 0.44 |
| 61 | GGAAGGUGAUGAAUCAGCCTT against Wwtr1 | active: -2.74 |
| 62 | GCUGUUACCUUGACGAAUATT against Tsc2 | inactive: 1.32 |
| 63 | GGGUUUGACUUUUUGAGGGTT against Fbxo30 | inactive: 0.383 |

Further records follow.

Row | Sequence | z-score
67 | GCUUUUCAUAUCUCUUGCATT against Olfr1385 | inactive: 0.408
68 | GGUACCAGGAUACGAAUAUTT against Pde10a | inactive: 0.817
69 | GGCUCUUAUUGAUAAAAGCTT against 2310057M21Rik | inactive: -0.467
70 | GGUGACUUGGAAGAGCCCATT against Il1rapl2 | inactive: -0.637
71 | CCUUCAUCGUACAUACCAUTT against Actn1 | inactive: 1.02
72 | GGAAGACAAAAUGUUCUAATT against Las1l | inactive: 1.37
73 | GGUGAUGAGCAACUUGGACTT against S100a4 | inactive: 1.23
74 | GGACAACAGUGUAAAAAUCTT against Armc12 | inactive: -0.318
75 | UUCUAAUCACAAAGGUUGATT against Olfr1113 | inactive: -0.368
76 | GGUGAUUUCCAUCUACAACTT against Tgfb2 | inactive: 0.757
77 | GGGAAUAUUCAGUUGACAATT against Iigp1 | inactive: -1.14
78 | GGAAACACCAGGUUUAUAUTT against Ttc27 | inactive: -1.74
79 | GGUUUAACAAGGAAUUAGGTT against Gngt1 | inactive: -0.832
80 | GGAAUGGUACUAUCAAAUATT against Bace2 | inactive: 1.91
81 | GGCAUCAGAGCAUCUGUGCTT against Ankrd16 | inactive: 0.488
82 | GGAGUUAAAGAGCUUAGGCTT against Cstf2t | inactive: -0.237
83 | CCUACUUCCCGUCAUUCCUTT against Tmem214 | inactive: 0.367
84 | CGUGAAAGGCACAAAAAAGTT against Gipc2 | inactive: -0.341
85 | GGGAUAUUGAGUUAGCCUGTT against Bet1 | inactive: 0.437
86 | GGUUAUUGAGGAGUUCUACTT against Slc2a1 | inactive: 0.44
87 | CGUGGCAAGAUGACUAUACTT against Ptprn2 | inactive: -0.609
88 | GCCUAUUGUCAGAAAAGUUTT against Usp4 | inactive: -0.385

Row | Sequence | z-score
89 | GGAUCUAUUCACUUCGGAUTT against Clec2d | inactive: 1.02
90 | CCCACAGCUCUGACAUUUUTT against Fbxo6 | inactive: -0.315
91 | GCACGAGACACUUUUCAUUTT against Dnajb5 | inactive: -0.0852
92 | GGUUGUGUGUUAUUUAUAGTT against Irak2 | inactive: -1.94
93 | GCUUCGAGUCAUAGGUUUATT against Btnl1 | inactive: 1.85
94 | GGUGUGGUGUGAGAUCUAUTT against Adra2a | inactive: 1.08
95 | GGGACAGUGUUUAUGACCCTT against Car5b | inactive: -1.1
96 | GGGUCUUGAGAAUCUUAUGTT against Zfp454 | inactive: -0.614
97 | GGUCCAGAGGAUGAACAGATT against Crcp | inactive: 0.551
98 | GGAUGAAGAAGAGAUCAACTT against Tubb6 | inactive: 0.986
99 | GGUGAAAGUACUGAGGAAGTT against Rlim | active: 2.45
100 | GGAAGCUGAACGAAAAUAATT against Cript | inactive: 0.196
101 | GCCUCUAUUCUACACCACATT against Gpr137 | active: -2.1
102 | GGGAAAUAAUGAUUGGUCUTT against Mier3 | inactive: 0.605
103 | GGACACAAUUAUGAGAACATT against Cwh43 | inactive: 0.0205
104 | GGAGAUCGAGUUCAACAUUTT against Olfr557 | inactive: 1.77
105 | GGUGAAUUCAACUCUCUAATT against Decr1 | active: 2.43
106 | GGUUUUUCUCACUUUUGUATT against Siah1a | inactive: 0.374
107 | GGAGAAUUGCUUGAAUACUTT against Supt20 | inactive: 0.419
